# Tested on: LNCaP cells
# Experiment: RNA-seq transcriptome sequencing of LNCaP cells
# Type: cell-based
# Conditions: 10 nM DHT, antagonists 10 μM with DHT, 48 h
SMILES,down-regulated genes (RNA-seq),up-regulated genes (RNA-seq)
CC(=O)Cc1nsc(NC(=O)c2cc(-c3cccc(C(F)(F)F)c3)oc2C)n1 [Compound M17-B15],32,6
"C[C@]12CCC(=O)C[C@@H]1CC[C@@H]1[C@@H]2CC[C@]2(C)[C@@H](O)CC[C@@H]12 [DHT, 5α-dihydrotestosteron]",222,268
"CNC(=O)c1ccc(N2C(=S)N(c3ccc(C#N)c(C(F)(F)F)c3)C(=O)C2(C)C)cc1F [Enz, enzalutamide, reference compound]",97,56

# — paper PMC10141604, “Small-Molecule Inhibition of Androgen Receptor Dimerization as a Strategy against Prostate Cancer” (ACS Central Science, 2023)
